Experimental data as given in PubChem BioAssay (NCATS).
Some of the results follow. Further columns of the screen follow, without active or inactive calls. Compounds called inactive in the main read-out are mostly missing here. Potencies come from curve fits of mixed quality, noted in brackets.

experiment: Validation of Assay for Modulators of Lamin A Splicing (AID 1459); details: Lamin A splicing dual RFP/GFP fluorescence reporter, ratio; measured here: GFP channel
Summary of the method: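 Splicing correction read as GFP (500-530 nm) over DsRed2 (575-640 nm) object intensity after 48 h compound exposure of reporter HeLa S3 clones (600 cells/well, 2% FBS medium); ancitabine and cycloheximide titrations, 0.5% DMSO as vehicle.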

Q: Which AC50 does the source give for `O=C(OC1CCN(CCCl)CC1)C(c1ccccc1)c1ccccc1` here?
A: The AC50 was 12.6 µM [falling, partial curve, poor fit].

Q: For `C[C@H](N)CN1CCc2ccc(Br)cc21`, which AC50 is on record?
A: Its AC50 is 28.2 µM [falling, single point].

Q: Which AC50 does the source give for `CC(C)[C@@]1(NC(=O)[C@@H]2C[C@@H]3c4cccc5[nH]cc(c45)C[C@H]3N(C)C2)O[C@@]2(O)C3CCCN3C(=O)[C@H](Cc3ccccc3)N2C1=O` (stereo partly drawn) here?
A: Its AC50 is 22.4 µM [falling, single point].

Q: With `c1ccc2c(c1)OCC(C1=NCCN1)O2` (stereo not drawn) as the compound, how does the AC50 read?
A: Its AC50 is 15.8 µM [falling, single point].

Q: Which AC50 does the source give for `Oc1ccccc1O` here?
A: The AC50 was 7.94 µM [falling, single point].

Q: Which AC50 does the source give for `COc1ccc(-n2nc(C(F)(F)F)cc2-c2ccc(Cl)cc2)cc1` here?
A: Its AC50 is 35.5 µM [rising, single point].

Q: For `CC(=O)[C@H]1CCC2C3CC[C@H]4C[C@H](O)CC[C@]4(C)C3CC[C@@]21C` (stereo partly drawn), which AC50 is on record?
A: Its AC50 is 12.6 µM [rising, partial curve].

Q: With `Cc1ccc(S(=O)(=O)N[C@@H](CCCCN)C(=O)CCl)cc1` as the compound, how does the AC50 read?
A: Its AC50 is 15.8 µM [falling, single point].

Q: With `C[N+](C)(C)CCOC(=O)CBr` as the compound, how does the AC50 read?
A: Its AC50 is 35.5 µM [rising, single point].

Q: With `CCc1c(C(=O)OC)ncc2[nH]c3cc(OC)c(OC)cc3c12` as the compound, how does the AC50 read?
A: Its AC50 is 7.94 µM [falling, partial curve].

Q: Which AC50 does the source give for `O=[N+]([O-])c1ccc2nc(N3CCNCC3)ccc2c1` here?
A: Its AC50 is 15.8 µM [falling, single point].

Q: Which AC50 does the source give for `NC(N)=Nc1ccc2[nH]c3c(c2c1)C[C@@]1(O)[C@H]2Cc4ccc(O)c5c4[C@@]1(CCN2CC1CC1)[C@H]3O5` here?
A: Its AC50 is 35.5 µM [falling, single point].

Q: Which AC50 does the source give for `Nc1nc(N)c2nc(CNc3ccc(C(=O)NC(CCC(=O)O)C(=O)O)cc3)cnc2n1` (stereo not drawn) here?
A: The AC50 was 0.0316 µM [falling, full curve].

Q: Which AC50 does the source give for `CN1CC[C@@]2(C)c3cc(O)ccc3N(C)C12` (stereo partly drawn) here?
A: The AC50 was 14.1 µM [falling, single point].

Q: For `C[C@@H]1O[C@@H](O[C@H]2C[C@@H](O)[C@]3(CO)[C@@H]4C(CC[C@]3(O)C2)[C@@]2(O)CC[C@H](C3=CC(=O)OC3)[C@@]2(C)C[C@H]4O)[C@H](O)[C@H](O)[C@H]1O` (stereo partly drawn), which AC50 is on record?
A: Its AC50 is 0.794 µM [falling, full curve, poor fit].

Q: For `O=c1oc(Cl)c(Cl)c2ccccc12`, which AC50 is on record?
A: The AC50 was 35.5 µM [falling, single point].

Q: For `O=c1[nH]cc(F)c(=O)[nH]1`, which AC50 is on record?
A: The AC50 was 0.158 µM [falling, full curve, poor fit].

Q: For `OCCN1CCN(CCCN2c3ccccc3Sc3ccc(C(F)(F)F)cc32)CC1`, which AC50 is on record?
A: The AC50 was 31.6 µM [falling, single point].
